Measurements reported in PubChem BioAssay AID504764 (Drosophila RNAi Screening Center, 2011).

Test: 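Genome-wide screen for regulators of Notch-driven gene expression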 (primary screen)
System: Drosophila Kc167 cells
Knock-down reagent: long dsRNA against Drosophila genes
Time to read-out: about 5 days (4 days dsRNA, then 24 h after transfection)
Conditions: transfection of constitutively active membrane-tethered Notch lacking the extracellular domain, read 24 h later
Detection: 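Light from a Notch-responsive E(spl)m3 luciferase reporter under active Notch, with control-promoter and no-Notch reporter wells to normalise; raw counts from paired wells a and b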
Direction: induced reporter light, run 1, well a and induced reporter light, run 1, well b: higher = more light from the Notch target reporter with active Notch; control promoter light, run 1, well a and control promoter light, run 1, well b: higher = more light from the viral control promoter (cell number, transfection, viability); uninduced reporter light, run 1, well a: higher = more light from the Notch target reporter without active Notch
Call rule: 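Wells with low control signal or poorly matching duplicates excluded; duplicates averaged; per source plate, z beyond ±2 for induced/control log2 ratio or beyond ±1.8 for induced/uninduced marks a hit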
Meaning of the calls: active = modifier hit (raised or lowered Notch signal); inactive = not a hit
The screen tested about 22,000 reagents; this is an unselected part of those that have a named target and a result. In the full data, 403 (1.9%) are marked active. 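Unnormalised raw counts per well; ratio z-scores behind the hit calls and whether each hit raises or lowers signal are not deposited.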 A number with no mark means an inactive call. The record does not give: the amount of reagent.

| gene | PubChem SID | induced reporter light, run 1, well a | induced reporter light, run 1, well b | control promoter light, run 1, well a | control promoter light, run 1, well b | uninduced reporter light, run 1, well a |
| --- | --- | --- | --- | --- | --- | --- |
| Tom7 | SID104184927 | 57840 | 59575 | 86810 | 91430 | 2935 |
| Tom7 | SID104186905 | 1.58e5 | 1.86e5 | 2.30e5 | 2.04e5 | 14670 |
| Vps11 | SID104191701 | 2.59e5 | 1.95e5 | 2.41e5 | 2.64e5 | 17695 |
| Vm26Ab | SID104183265 | 1.70e5 | 1.83e5 | 2.36e5 | 1.68e5 | 7935 |
| Pka-R1 | SID104191466 | 89230 | 83260 | 51050 | 54565 | 6695 |
| Pka-R1 | SID104191667 | 96530 | 1.10e5 | 81800 | 91915 | 8610 |
| Nipped-B | SID104187607 | 78870 | 54955 | 89480 | 56210 | 4920 |
| CG17572 | SID104182421 | 31610 | 32990 | 35890 | 50520 | 2000 |
| sdk | SID104198623 | 41000 | 43285 | 56115 | 58715 | 2882 |
| MESR3 | SID104182255 | 31475 | 30435 | 40085 | 54605 | 2860 |
| CG7806 | SID104182863 | 1.70e5 | 1.91e5 | 1.68e5 | 1.60e5 | 15890 |
| RpS7 | SID104195186 | 11090 | 8128 | 13080 | 14125 | 730 |
| Jhbp15 | SID104195009 | 2.15e5 | 1.99e5 | 2.22e5 | 2.22e5 | 15065 |
| CG7943 | SID104196143 | 1.54e5 | 1.61e5 | 2.14e5 | 2.29e5 | 11725 |

The list goes on; the last 2 above are carried over.
| gene | PubChem SID | induced reporter light, run 1, well a | induced reporter light, run 1, well b | control promoter light, run 1, well a | control promoter light, run 1, well b | uninduced reporter light, run 1, well a |
| --- | --- | --- | --- | --- | --- | --- |
| Jhbp15 | SID104195009 | 2.15e5 | 1.99e5 | 2.22e5 | 2.22e5 | 15065 |
| CG7943 | SID104196143 | 1.54e5 | 1.61e5 | 2.14e5 | 2.29e5 | 11725 |
| NANS | SID104195535 | 1.44e5 | 1.53e5 | 1.44e5 | 1.22e5 | 11290 |
| spo | SID104190919 | 2.65e5 | 2.27e5 | 2.75e5 | 1.92e5 | 11260 |
| Sirt6 | SID104195802 | 21865 | 28005 | 35715 | 35585 | 1760 |
| CG10140 | SID104189496 | 1.58e5 | 1.71e5 | 1.99e5 | 1.65e5 | 10280 |
| Yod1 | SID104190225 | 1.65e5 | 1.59e5 | 1.41e5 | 1.05e5 | 14810 |
| CG9636 | SID104196321 | 93105 | 1.18e5 | 83725 | 87345 | 8730 |
| CG11529 | SID104189631 | 1.43e5 | 1.35e5 | 2.38e5 | 1.42e5 | 6755 |
| CG15747 | SID104199505 | 28160 | 26395 | 28380 | 25045 | 2665 |
| CG34435 | SID104197878 | 1.39e5 | 1.40e5 | 3.03e5 | 2.44e5 | 10540 |
| CG18273 | SID104197942 | 1.63e5 | 1.35e5 | 2.35e5 | 2.33e5 | 12365 |
| CG18273 | SID104198297 | 1.98e5 | 1.93e5 | 2.26e5 | 2.90e5 | 13805 |
| Eig71Eg | SID104190946 | 1.69e5 | 1.23e5 | 1.67e5 | 1.43e5 | 5900 |
| CG42249 | SID104199175 | 1.14e5 | 1.41e5 | 2.08e5 | 2.00e5 | 8960 |
| CG42249 | SID104199618 | 1.04e5 | 90630 | 1.21e5 | 1.16e5 | 6975 |
| CG4836 | SID104195451 | 1.78e5 | 1.73e5 | 2.16e5 | 2.55e5 | 14690 |
| TfIIA-S | SID104196675 | 1.62e5 | 1.76e5 | 1.31e5 | 1.15e5 | 13195 |
| AP-2sigma | SID104195749 | 1.39e5 | 1.25e5 | 1.60e5 | 1.55e5 | 7888 |
| CG4714 | SID104186675 | 1.32e5 | 1.67e5 | 1.99e5 | 1.41e5 | 14135 |
| HBS1 | SID104188336 | 1.12e5 | 83515 | 1.59e5 | 1.62e5 | 9400 |
| otu | SID104198603 | 1.68e5 | 1.53e5 | 2.79e5 | 2.57e5 | 11655 |
